# Reference: the supplement of paper PMC8728848
# The other results are listed elsewhere or left out.
# Key:
# Assay in all cases: glycan array binding signal (z-score within array); higher = stronger binding
# Settings in all cases: glycan notation: IUPAC condensed, linker removed
# GalNAc3S(b1-4)GlcNAc = biological target: GalNAc3S(b1-4)GlcNAc
# Method in brief: (§1)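 From the Consortium for Functional Glycomics database, 3228 arrays were curated, keeping only those whose protein sequence was available. Binding is given as a within-array Z-score averaged across arrays sharing a protein sequence and across linkers. Negative Z-scores can be read as non-binding.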
# GalNAc3S(b1-4)GlcNAc3S = biological target: GalNAc3S(b1-4)GlcNAc3S
# Method in brief: as §1
# [1] = biological target: GalNAc3S(b1-4)[Fuc(a1-3)]GlcNAc
# Method in brief: as §1
# GalNAc4S6S(b1-4)GlcNAc = biological target: GalNAc4S6S(b1-4)GlcNAc
# Method in brief: as §1
# GalNAc6S(b1-4)GlcNAc = biological target: GalNAc6S(b1-4)GlcNAc
# Method in brief: as §1
# Glc(a1-4)Glc = biological target: Glc(a1-4)Glc
# Method in brief: as §1
# [2] = biological target: Glc(a1-4)Glc(a1-4)Glc(a1-4)Glc
# Method in brief: as §1
# Glc(a1-6)Glc(a1-6)Glc = biological target: Glc(a1-6)Glc(a1-6)Glc
# Method in brief: as §1
# [3] = biological target: Glc(a1-6)Glc(a1-6)Glc(a1-6)Glc
# Method in brief: as §1
# Glc(b1-4)Glc = biological target: Glc(b1-4)Glc
# Method in brief: as §1
# Glc(b1-6)Glc = biological target: Glc(b1-6)Glc
# Method in brief: as §1
# GlcA(b1-3)Gal = biological target: GlcA(b1-3)Gal
# Method in brief: as §1
# GlcA(b1-3)GlcNAc = biological target: GlcA(b1-3)GlcNAc
# Method in brief: as §1
# GlcA(b1-6)Gal = biological target: GlcA(b1-6)Gal
# Method in brief: as §1
# [4] = biological target: GlcA3S(b1-3)Gal(b1-4)GlcNAc(b1-2)Man
# Method in brief: as §1
# [5] = biological target: GlcA3S(b1-3)Gal(b1-4)GlcNAc(b1-3)Gal(b1-4)Glc
# Method in brief: as §1
# [6] = biological target: GlcNAc(a1-3)Gal(b1-4)GlcNAc
# Method in brief: as §1
# [7] = biological target: GlcNAc(a1-4)Gal(b1-3)GlcNAc
# Method in brief: as §1
# [8] = biological target: GlcNAc(a1-4)Gal(b1-4)GalNAc
# Method in brief: as §1
# [9] = biological target: GlcNAc(a1-4)Gal(b1-4)GlcNAc
# Method in brief: as §1
# [10] = biological target: GlcNAc(a1-4)Gal(b1-4)GlcNAc(b1-3)Gal(b1-4)Glc
# Method in brief: as §1
# [11] = biological target: GlcNAc(a1-4)Gal(b1-4)GlcNAc(b1-3)Gal(b1-4)GlcNAc
# Method in brief: as §1
# [12] = biological target: GlcNAc(a1-4)Gal(b1-4)GlcNAc(b1-3)Gal(b1-4)GlcNAc(b1-3)Gal(b1-4)GlcNAc
# Method in brief: as §1
# [13] = biological target: GlcNAc(a1-4)Gal(b1-4)GlcNAc(b1-3)Gal(b1-4)[Fuc(a1-3)]GlcNAc(b1-3)Gal(b1-4)[Fuc(a1-3)]GlcNAc
# Method in brief: as §1
# [14] = biological target: GlcNAc(a1-6)Gal(b1-4)GlcNAc
# Method in brief: as §1
# [15] = biological target: GlcNAc(b1-2)Gal(b1-3)GalNAc
# Method in brief: as §1
# [16] = biological target: GlcNAc(b1-2)Man(a1-3)[GlcNAc(b1-2)Man(a1-6)]Man(b1-4)GlcNAc(b1-4)GlcNAc
# Method in brief: as §1
# [17] = biological target: GlcNAc(b1-2)Man(a1-3)[GlcNAc(b1-2)Man(a1-6)]Man(b1-4)GlcNAc(b1-4)[Fuc(a1-6)]GlcNAc
# Method in brief: as §1
# [18] = biological target: GlcNAc(b1-2)Man(a1-3)[GlcNAc(b1-4)][GlcNAc(b1-2)Man(a1-6)]Man(b1-4)GlcNAc(b1-4)GlcNAc
# Method in brief: as §1
# [19] = biological target: GlcNAc(b1-2)Man(a1-3)[GlcNAc(b1-4)][GlcNAc(b1-2)Man(a1-6)]Man(b1-4)GlcNAc(b1-4)[Fuc(a1-6)]GlcNAc
# Method in brief: as §1
# [20] = biological target: GlcNAc(b1-2)[GlcNAc(b1-4)]Man(a1-3)[GlcNAc(b1-2)Man(a1-6)]Man(b1-4)GlcNAc(b1-4)GlcNAc
# Method in brief: as §1
# [21] = biological target: GlcNAc(b1-2)[GlcNAc(b1-4)]Man(a1-3)[GlcNAc(b1-4)][GlcNAc(b1-2)Man(a1-6)]Man(b1-4)GlcNAc(b1-4)GlcNAc
# Method in brief: as §1
# [22] = biological target: GlcNAc(b1-2)[GlcNAc(b1-4)]Man(a1-3)[GlcNAc(b1-4)][GlcNAc(b1-2)[GlcNAc(b1-6)]Man(a1-6)]Man(b1-4)GlcNAc(b1-4)GlcNAc
# Method in brief: as §1
# [23] = biological target: GlcNAc(b1-2)[GlcNAc(b1-4)]Man(a1-3)[GlcNAc(b1-4)][GlcNAc(b1-2)[GlcNAc(b1-6)]Man(a1-6)]Man(b1-4)GlcNAc(b1-4)[Fuc(a1-6)]GlcNAc
# Method in brief: as §1
# [24] = biological target: GlcNAc(b1-2)[GlcNAc(b1-6)]Man(a1-6)[GlcNAc(b1-2)Man(a1-3)]Man(b1-4)GlcNAc(b1-4)GlcNAc
# Method in brief: as §1
# [25] = biological target: GlcNAc(b1-2)[GlcNAc(b1-6)]Man(a1-6)[GlcNAc(b1-2)Man(a1-3)]Man(b1-4)GlcNAc(b1-4)[Fuc(a1-6)]GlcNAc
# Method in brief: as §1
# [26] = biological target: GlcNAc(b1-2)[GlcNAc(b1-6)]Man(a1-6)[GlcNAc(b1-2)Man(a1-3)][GlcNAc(b1-4)]Man(b1-4)GlcNAc(b1-4)GlcNAc
# Method in brief: as §1
# [27] = biological target: GlcNAc(b1-2)[GlcNAc(b1-6)]Man(a1-6)[GlcNAc(b1-4)][GlcNAc(b1-2)Man(a1-3)]Man(b1-4)GlcNAc(b1-4)GlcNAc
# Method in brief: as §1
# GlcNAc(b1-3)Fuc = biological target: GlcNAc(b1-3)Fuc
# Method in brief: as §1
# GlcNAc(b1-3)Gal = biological target: GlcNAc(b1-3)Gal
# Method in brief: as §1
# [28] = biological target: GlcNAc(b1-3)Gal(b1-3)GalNAc
# Method in brief: as §1
# GlcNAc(b1-3)Gal(b1-4)Glc = biological target: GlcNAc(b1-3)Gal(b1-4)Glc
# Method in brief: as §1
# [29] = biological target: GlcNAc(b1-3)Gal(b1-4)GlcNAc
# Method in brief: as §1
# [30] = biological target: GlcNAc(b1-3)Gal(b1-4)GlcNAc(b1-2)Man(a1-3)[GlcNAc(b1-3)Gal(b1-4)GlcNAc(b1-2)Man(a1-6)]Man(b1-4)GlcNAc(b1-4)GlcNAc
# Method in brief: as §1
# [31] = biological target: GlcNAc(b1-3)Gal(b1-4)GlcNAc(b1-2)Man(a1-3)[GlcNAc(b1-3)Gal(b1-4)GlcNAc(b1-2)Man(a1-6)]Man(b1-4)GlcNAc(b1-4)[Fuc(a1-6)]GlcNAc
# Method in brief: as §1
# [32] = biological target: GlcNAc(b1-3)Gal(b1-4)GlcNAc(b1-2)[GlcNAc(b1-3)Gal(b1-4)GlcNAc(b1-6)]Man(a1-6)[GlcNAc(b1-3)Gal(b1-4)GlcNAc(b1-2)Man(a1-3)]Man(b1-4)GlcNAc(b1-4)GlcNAc
# Method in brief: as §1
# [33] = biological target: GlcNAc(b1-3)Gal(b1-4)GlcNAc(b1-3)Gal(b1-4)GlcNAc
# Method in brief: as §1
# [34] = biological target: GlcNAc(b1-3)Gal(b1-4)GlcNAc(b1-3)Gal(b1-4)GlcNAc(b1-2)Man(a1-3)[GlcNAc(b1-3)Gal(b1-4)GlcNAc(b1-3)Gal(b1-4)GlcNAc(b1-2)Man(a1-6)]Man(b1-4)GlcNAc(b1-4)GlcNAc
# Method in brief: as §1
# [35] = biological target: GlcNAc(b1-3)Gal(b1-4)GlcNAc(b1-3)Gal(b1-4)GlcNAc(b1-2)Man(a1-3)[GlcNAc(b1-3)Gal(b1-4)GlcNAc(b1-3)Gal(b1-4)GlcNAc(b1-2)Man(a1-6)]Man(b1-4)GlcNAc(b1-4)[Fuc(a1-6)]GlcNAc
# Method in brief: as §1
# [36] = biological target: GlcNAc(b1-3)Gal(b1-4)GlcNAc(b1-3)Gal(b1-4)GlcNAc(b1-2)[GlcNAc(b1-3)Gal(b1-4)GlcNAc(b1-3)Gal(b1-4)GlcNAc(b1-6)]Man(a1-6)[GlcNAc(b1-3)Gal(b1-4)GlcNAc(b1-3)Gal(b1-4)GlcNAc(b1-2)Man(a1-3)]Man(b1-4)GlcNAc(b1-4)[Fuc(a1-6)]GlcNAc
# Method in brief: as §1
# [37] = biological target: GlcNAc(b1-3)Gal(b1-4)GlcNAc(b1-3)Gal(b1-4)GlcNAc(b1-3)Gal(b1-4)GlcNAc(b1-2)Man(a1-3)[GlcNAc(b1-3)Gal(b1-4)GlcNAc(b1-3)Gal(b1-4)GlcNAc(b1-3)Gal(b1-4)GlcNAc(b1-2)Man(a1-6)]Man(b1-4)GlcNAc(b1-4)GlcNAc
# Method in brief: as §1
# [38] = biological target: GlcNAc(b1-3)Gal(b1-4)GlcNAc(b1-3)Gal(b1-4)GlcNAc(b1-3)Gal(b1-4)GlcNAc(b1-2)Man(a1-3)[GlcNAc(b1-3)Gal(b1-4)GlcNAc(b1-3)Gal(b1-4)GlcNAc(b1-3)Gal(b1-4)GlcNAc(b1-2)Man(a1-6)]Man(b1-4)GlcNAc(b1-4)[Fuc(a1-6)]GlcNAc
# Method in brief: as §1
# [39] = biological target: GlcNAc(b1-3)Gal(b1-4)GlcNAc(b1-3)Gal(b1-4)GlcNAc(b1-3)Gal(b1-4)GlcNAc(b1-2)[GlcNAc(b1-3)Gal(b1-4)GlcNAc(b1-3)Gal(b1-4)GlcNAc(b1-3)Gal(b1-4)GlcNAc(b1-6)]Man(a1-6)[GlcNAc(b1-3)Gal(b1-4)GlcNAc(b1-3)Gal(b1-4)GlcNAc(b1-3)Gal(b1-4)GlcNAc(b1-2)Man(a1-3)]Man(b1-4)GlcNAc(b1-4)[Fuc(a1-6)]GlcNAc
# Method in brief: as §1
binder,measurement,setting,value
KILRGVCKKIMRTFLRRISKDILTGKK [NK2 (Sus scrofa)],glycan array binding signal (z-score),GalNAc3S(b1-4)GlcNAc,0.948
same,glycan array binding signal (z-score),GalNAc3S(b1-4)GlcNAc3S,0.142
same,glycan array binding signal (z-score),[1],-0.412
same,glycan array binding signal (z-score),GalNAc4S6S(b1-4)GlcNAc,1.04
same,glycan array binding signal (z-score),GalNAc6S(b1-4)GlcNAc,0.828
same,glycan array binding signal (z-score),Glc(a1-4)Glc,0.301
same,glycan array binding signal (z-score),[2],0.05
same,glycan array binding signal (z-score),Glc(a1-6)Glc(a1-6)Glc,-0.341
same,glycan array binding signal (z-score),[3],0.727
same,glycan array binding signal (z-score),Glc(b1-4)Glc,0.034
same,glycan array binding signal (z-score),Glc(b1-6)Glc,-0.404
same,glycan array binding signal (z-score),GlcA(b1-3)Gal,-0.68
same,glycan array binding signal (z-score),GlcA(b1-3)GlcNAc,0.429
same,glycan array binding signal (z-score),GlcA(b1-6)Gal,-0.184
same,glycan array binding signal (z-score),[4],-0.244
same,glycan array binding signal (z-score),[5],0.836
same,glycan array binding signal (z-score),[6],-0.689
same,glycan array binding signal (z-score),[7],-0.861
same,glycan array binding signal (z-score),[8],0.065
same,glycan array binding signal (z-score),[9],-0.403
same,glycan array binding signal (z-score),[10],-0.502
same,glycan array binding signal (z-score),[11],0.419
same,glycan array binding signal (z-score),[12],-0.435
same,glycan array binding signal (z-score),[13],-0.295
same,glycan array binding signal (z-score),[14],-1.07
same,glycan array binding signal (z-score),[15],-0.471
same,glycan array binding signal (z-score),[16],-0.252
same,glycan array binding signal (z-score),[17],-0.136
same,glycan array binding signal (z-score),[18],0.574
same,glycan array binding signal (z-score),[19],-1.11
same,glycan array binding signal (z-score),[20],0.141
same,glycan array binding signal (z-score),[21],-0.066
same,glycan array binding signal (z-score),[22],-0.022
same,glycan array binding signal (z-score),[23],-1.74
same,glycan array binding signal (z-score),[24],-0.087
same,glycan array binding signal (z-score),[25],-1.17
same,glycan array binding signal (z-score),[26],-0.487
same,glycan array binding signal (z-score),[27],0.098
same,glycan array binding signal (z-score),GlcNAc(b1-3)Fuc,-1.83
same,glycan array binding signal (z-score),GlcNAc(b1-3)Gal,-0.759
same,glycan array binding signal (z-score),[28],-0.538
same,glycan array binding signal (z-score),GlcNAc(b1-3)Gal(b1-4)Glc,-0.244
same,glycan array binding signal (z-score),[29],-0.313
same,glycan array binding signal (z-score),[30],-0.892
same,glycan array binding signal (z-score),[31],1.49
same,glycan array binding signal (z-score),[32],0.504
same,glycan array binding signal (z-score),[33],-0.623
same,glycan array binding signal (z-score),[34],-0.06
same,glycan array binding signal (z-score),[35],0.832
same,glycan array binding signal (z-score),[36],-1.17
same,glycan array binding signal (z-score),[37],-0.358
same,glycan array binding signal (z-score),[38],-0.197
same,glycan array binding signal (z-score),[39],-0.914

# 11 entries from above in another layout:
binder | measurement | setting | value
KILRGVCKKIMRTFLRRISKDILTGKK [NK2 (Sus scrofa)] | glycan array binding signal (z-score) | Glc(b1-6)Glc | -0.404
same | glycan array binding signal (z-score) | GlcA(b1-3)Gal | -0.68
same | glycan array binding signal (z-score) | GlcA(b1-3)GlcNAc | 0.429
same | glycan array binding signal (z-score) | GlcA(b1-6)Gal | -0.184
same | glycan array binding signal (z-score) | [4] | -0.244
same | glycan array binding signal (z-score) | [5] | 0.836
same | glycan array binding signal (z-score) | [6] | -0.689
same | glycan array binding signal (z-score) | [7] | -0.861
same | glycan array binding signal (z-score) | [8] | 0.065
same | glycan array binding signal (z-score) | [9] | -0.403
same | glycan array binding signal (z-score) | [10] | -0.502
